Some of these results come from one statement about several compounds together.
What was measured:
K-RasG12V = K-RasG12V (Homo sapiens, UniProt P01116+P62937, G12V); assay: Disruption of BRAF RBD interaction with K-Ras (TR-FRET / MOA assay), K-RasG12V; assay type: biochemical; conditions: TR-FRET with cyclophilin A and GST-BRAF RBD, read-out: IC50 with respect to K-RasG12V (disruption of BRAF RBD interaction)
Capan-1 (K-Ras G12V) = assay: CellTiter-Glo cell viability assay, Capan-1; assay type: cell-based, human; conditions: 5-day treatment, Capan-1 versus A375

The chains behind the UniProt entries cited, without tags or fusion partners. Where a name states a change or a piece, a line headed by the entry shows the natural chain unless it says otherwise. Residues count along the entry.
UniProt P01116, 1-188 isoform P01116-2 G12V: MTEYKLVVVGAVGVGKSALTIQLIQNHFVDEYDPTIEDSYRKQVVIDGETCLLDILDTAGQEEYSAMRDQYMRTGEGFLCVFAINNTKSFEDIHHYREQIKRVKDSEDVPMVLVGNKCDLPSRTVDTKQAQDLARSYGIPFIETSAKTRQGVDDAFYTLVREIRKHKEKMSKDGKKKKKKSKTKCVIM
UniProt P62937, whole entry: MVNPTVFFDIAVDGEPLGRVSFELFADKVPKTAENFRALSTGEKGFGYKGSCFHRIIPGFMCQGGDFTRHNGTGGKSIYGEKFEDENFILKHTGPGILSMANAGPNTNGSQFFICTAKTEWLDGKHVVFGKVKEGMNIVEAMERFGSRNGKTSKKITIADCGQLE

Structure (SMILES)	IC50 (K-RasG12V)	decrease in cell viability with respect to KRAS G12V (Capan-1) versus wild-type KRAS (A375) (Capan-1 (K-Ras G12V))
COC1CN([C@@H]2c3nc(cs3)-c3ccc4c(c3)c(c(-c3cccnc3[C@H](C)OC)n4CCOC3CCOCC3)CC(C)(C)COC(=O)[C@@H]3CCCN(N3)C(=O)[C@H]2NC(=O)C23CC(C)(C2)[C@@H](C)O3)C1 (racemic) [Example A147]	< 1000 nM	greater decrease in cell viability
COC1CN([C@@H]2c3nc(cs3)-c3ccc4c(c3)c(c(-c3cccnc3[C@H](C)OC)n4CCOC3CCOCC3)CC(C)(C)COC(=O)[C@@H]3CCCN(N3)C(=O)[C@H]2NC(=O)C23CC(C)(C2)[C@H](C)O3)C1 (racemic) [Example A148]	< 1000 nM	greater decrease in cell viability
CO[C@@H](C)c1ncccc1-c1c2c3cc(ccc3n1CCOC1CCOCC1)-c1csc(n1)[C@@H](N1CC(C)(OC)C1)[C@H](NC(=O)C13CC(C)(C1)[C@@H](C)O3)C(=O)N1CCC[C@H](N1)C(=O)OCC(C)(C)C2 (racemic) [Example A149]	< 1000 nM	greater decrease in cell viability
CO[C@@H](C)c1ncccc1-c1c2c3cc(ccc3n1CCOC1CCOCC1)-c1csc(n1)[C@@H](N1CC(C)(OC)C1)[C@H](NC(=O)C13CC(C)(C1)[C@H](C)O3)C(=O)N1CCC[C@H](N1)C(=O)OCC(C)(C)C2 (racemic) [Example A150]	< 1000 nM	greater decrease in cell viability
CO[C@@H](C)c1ncccc1-c1c2c3cc(ccc3n1CCOC1CCOCC1)-c1csc(n1)[C@@H](N1CC3(CCCCO3)C1)[C@H](NC(=O)C13CC(C)(C1)[C@@H](C)O3)C(=O)N1CCC[C@H](N1)C(=O)OCC(C)(C)C2 (racemic) [Example A151]	< 1000 nM	greater decrease in cell viability
CO[C@@H](C)c1ncccc1-c1c2c3cc(ccc3n1CCOC1CCOCC1)-c1csc(n1)[C@@H](N1CC3(CCCCO3)C1)[C@H](NC(=O)C13CC(C)(C1)[C@H](C)O3)C(=O)N1CCC[C@H](N1)C(=O)OCC(C)(C)C2 (racemic) [Example A152]	< 1000 nM	greater decrease in cell viability
CO[C@@H](C)c1ncc(C2CN(C3CC3)C2)cc1-c1c2c3cc(ccc3n1CCOC1CCOCC1)-c1csc(n1)[C@@H](N1CC(C)(C)C1)[C@H](NC(=O)[C@H]1[C@H](C)[C@@H]1C)C(=O)N1CCC[C@H](N1)C(=O)OCC(C)(C)C2 (racemic) [Example A153]	< 1000 nM	greater decrease in cell viability
CO[C@@H](C)c1ncc(C2CCN(C3CC3)CC2)cc1-c1c2c3cc(ccc3n1CCOC1CCOCC1)-c1csc(n1)[C@@H](N1CC3(CCC3)C1)[C@H](NC(=O)C13CC(C)(C1)[C@@H](C)O3)C(=O)N1CCC[C@H](N1)C(=O)OCC(C)(C)C2 (racemic) [Example A154]	< 1000 nM	greater decrease in cell viability
CO[C@@H](C)c1ncc(C2CCN(C3CC3)CC2)cc1-c1c2c3cc(ccc3n1CCOC1CCOCC1)-c1csc(n1)[C@@H](N1CC3(CCC3)C1)[C@H](NC(=O)C13CC(C)(C1)[C@H](C)O3)C(=O)N1CCC[C@H](N1)C(=O)OCC(C)(C)C2 (racemic) [Example A155]	< 1000 nM	greater decrease in cell viability
CO[C@@H](C)c1ncccc1-c1c2c3cc(ccc3n1C1CC1)-c1csc(n1)[C@@H](N1CC(C)(C)C1)[C@H](NC(=O)[C@H]1[C@H](C)[C@@H]1C)C(=O)N1CCC[C@H](N1)C(=O)OCC(C)(C)C2 (racemic) [Example A156]	< 1000 nM	greater decrease in cell viability
[2H]C([2H])([2H])[C@@H]1OC2(C(=O)N[C@@H]3C(=O)N4N[C@H](C(=O)OCC(C)(C)Cc5c(-c6cccnc6[C@H](C)OC)n(C6COC6)c6ccc(cc56)-c5csc(n5)[C@H]3N3CC5(COC5)C3)C3CC4C3)CC1C2 (racemic) [Example A157]	< 1000 nM	greater decrease in cell viability
CO[C@@H](C)c1ncccc1-c1c2c3cc(ccc3n1CC(F)(F)F)-c1csc(n1)[C@@H](N1CC3(COC3)C1)[C@H](NC(=O)C13CC(C)(C1)[C@H](C)O3)C(=O)N1N[C@H](C(=O)OCC(C)(C)C2)C2CC1C2 (racemic) [Example A158]	< 1000 nM	greater decrease in cell viability
CO[C@@H](C)c1ncccc1-c1c2c3cc(ccc3n1CC(F)(F)F)-c1csc(n1)[C@@H](N1CC3(COC3)C1)[C@H](NC(=O)C13CC(C)(C1)[C@H](C)O3)C(=O)N1CCC[C@H](N1)C(=O)OCC(C)(C)C2 (racemic) [Example A159]	< 1000 nM	greater decrease in cell viability

From US20250154171A1, “RAS INHIBITORS” (Revolution Medicines, Inc., priority 2023, published 2025)
